This data set addresses T1, GST-FOXM1-DBD (UniProt Q08050).
T1 sequence (looked up): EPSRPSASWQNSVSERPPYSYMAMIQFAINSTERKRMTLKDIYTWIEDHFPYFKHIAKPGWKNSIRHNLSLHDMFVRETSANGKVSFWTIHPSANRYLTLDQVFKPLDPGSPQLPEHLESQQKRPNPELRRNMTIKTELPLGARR
Nature of the data set: EMSA. The following applies: 5' iSpC3 spacer between dye and DNA, EMSA: 20 mM Tris pH 8.0, 50 mM KCl, 5 mM MgCl2, 1 mM DTT, 10 uL, 1 h at room temperature, 6% native gel at 4 C, recombinant protein, residues 221-365, label: 5' 6-FAM on forward strand. A general note: Mobility shift assays separate free from complexed probe on a gel.

For at least one entry, the source does not settle the construct or the ends of the probe. A weaker result is weaker than the reference pair of the same experiment. Tags and fusion partners may be left off the protein sequences shown. At least one verdict rests on a figure or table, not on a statement of the authors.

For the sequence “AAACAAACAAACAATC (double strand) [FOXM1 dsDNA consensus oligonucleotide]”, the binding result runs as follows: (2 uM protein, 100 nM DNA, 5 mM Mg2+, no honokiol) “binds”; (100 uM honokiol, 2 uM protein, 100 nM DNA, 5 mM Mg2+) “binds more weakly”; (2,2-dihydroxybiphenyl (no interference, data not shown)) “binds”; (2-allylphenol (no interference, data not shown)) “binds”; (O-eugenol (no interference, data not shown)) “binds”; (eugenol (no interference, data not shown)) “binds”.
